Measured data: PubChem BioAssay AID1671195 (Yale University, 2021)

Purpose: 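Knockdowns that increase or decrease uptake of fluorescent LDL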 (primary screen)
Cell system: human Huh7 hepatoma cells
Knock-down reagent: siRNA pool against human genes, 18 nM
Timing: about 2 to 2.5 days of knockdown, then 8 h LDL uptake
Treatment: DiI-labelled LDL at 30 µg/ml for 8 h, in lipoprotein-deficient serum medium
Measured: 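Per-cell DiI-LDL intensity by automated imaging; well means scaled to the plate median and given as a robust z-score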
Scale: robust z-score: higher = more LDL uptake after knockdown
Rule for the call: 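a gene counts as active if at least two replicate z-scores exceed ±2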
In all, the deposit lists about 22,000 reagents; shown is a part drawn at random. About 1,510 of them (6.9%) were called active. 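Active includes knockdowns raising or lowering LDL uptake; positive z-scores mean more uptake, negative mean less.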 Entries without a mark were called inactive.

LOC389071 (retired record)
- robust z-score, replicate 1: -1.38
- robust z-score, replicate 2: -1.42
- robust z-score, replicate 3: -1.5

MACC1 (MET transcriptional regulator MACC1)
- robust z-score, replicate 1: 0.719
- robust z-score, replicate 2: 0.979
- robust z-score, replicate 3: 0.841

LUC7L3 (LUC7 like 3 pre-mRNA splicing factor)
- robust z-score, replicate 1: 0.691
- robust z-score, replicate 2: 0.635
- robust z-score, replicate 3: 0.397

LOC389695 (retired record)
- robust z-score, replicate 1: 0.64
- robust z-score, replicate 2: 1.4
- robust z-score, replicate 3: 0.306

SCN4A (sodium voltage-gated channel alpha subunit 4)
- robust z-score, replicate 1: 0.0433
- robust z-score, replicate 2: 0.415
- robust z-score, replicate 3: 0.298

TRABD2B (TraB domain containing 2B)
- robust z-score, replicate 1: 0.28
- robust z-score, replicate 2: -0.107
- robust z-score, replicate 3: -0.109

LOC442513 (retired record)
- robust z-score, replicate 1: 0.733
- robust z-score, replicate 2: 0.559
- robust z-score, replicate 3: 0.463

MRC2 (mannose receptor C-type 2)
- robust z-score, replicate 1: 0.264
- robust z-score, replicate 2: 0.406
- robust z-score, replicate 3: 0.126

JAKMIP3 (Janus kinase and microtubule interacting protein 3)
- robust z-score, replicate 1: -0.791
- robust z-score, replicate 2: -0.429
- robust z-score, replicate 3: -0.641

TMEM108 (transmembrane protein 108)
- robust z-score, replicate 1: -0.88
- robust z-score, replicate 2: -0.653
- robust z-score, replicate 3: -1.04

MERTK (MER proto-oncogene, tyrosine kinase)
- robust z-score, replicate 1: 1.17
- robust z-score, replicate 2: 1.95
- robust z-score, replicate 3: 1.15

OR51E1 (olfactory receptor family 51 subfamily E member 1)
- robust z-score, replicate 1: -1.32
- robust z-score, replicate 2: -1.58
- robust z-score, replicate 3: -1.4

RGS18 (regulator of G protein signaling 18)
- robust z-score, replicate 1: 1.01
- robust z-score, replicate 2: 1.09
- robust z-score, replicate 3: 1.02

ARRB2 (arrestin beta 2)
- robust z-score, replicate 1: -0.095
- robust z-score, replicate 2: 0.285
- robust z-score, replicate 3: -0.569

CAPN11 (calpain 11)
- robust z-score, replicate 1: -1.63
- robust z-score, replicate 2: -1.12
- robust z-score, replicate 3: -1.42

ZNF442 (zinc finger protein 442)
- robust z-score, replicate 1: -0.754
- robust z-score, replicate 2: -0.544
- robust z-score, replicate 3: -0.632

GLI4 (GLI family zinc finger 4)
- robust z-score, replicate 1: -0.211
- robust z-score, replicate 2: 0.358
- robust z-score, replicate 3: -0.178

ASPNAT (aspartate N-acetyltransferase)
- robust z-score, replicate 1: 0.412
- robust z-score, replicate 2: 0.194
- robust z-score, replicate 3: 0.946

GML (glycosylphosphatidylinositol anchored molecule like)
- robust z-score, replicate 1: 1.33
- robust z-score, replicate 2: 0.595
- robust z-score, replicate 3: 1.77

TCEAL9 (transcription elongation factor A like 9)
- robust z-score, replicate 1: 0.226
- robust z-score, replicate 2: 0.823
- robust z-score, replicate 3: 0.316

EXD2 (exonuclease 3'-5' domain containing 2)
- robust z-score, replicate 1: -0.363
- robust z-score, replicate 2: 0.0542
- robust z-score, replicate 3: -0.235

CA14 (carbonic anhydrase 14)
- robust z-score, replicate 1: -0.0377
- robust z-score, replicate 2: -0.142
- robust z-score, replicate 3: -0.322

COL5A2 (collagen type V alpha 2 chain)
- robust z-score, replicate 1: 0.118
- robust z-score, replicate 2: -0.885
- robust z-score, replicate 3: -0.716

ADAM18 (ADAM metallopeptidase domain 18)
- robust z-score, replicate 1: 1
- robust z-score, replicate 2: 0.517
- robust z-score, replicate 3: 1.08

A portion from the list above, as a working copy:
ARRB2 (arrestin beta 2)
- robust z-score, replicate 1: -0.095
- robust z-score, replicate 2: 0.285
- robust z-score, replicate 3: -0.569

CAPN11 (calpain 11)
- robust z-score, replicate 1: -1.63
- robust z-score, replicate 2: -1.12
- robust z-score, replicate 3: -1.42

ZNF442 (zinc finger protein 442)
- robust z-score, replicate 1: -0.754
- robust z-score, replicate 2: -0.544
- robust z-score, replicate 3: -0.632

GLI4 (GLI family zinc finger 4)
- robust z-score, replicate 1: -0.211
- robust z-score, replicate 2: 0.358
- robust z-score, replicate 3: -0.178
